Measurements: PMC11994663
These are yes or no findings as the source states them, for the method shown. In cells and extracts the contact can be indirect. Some binding calls cover weakened binding; strength is not graded here. Tags and fused reporters may be left off the sequences shown.

Sequences of proteins named here, by UniProt entry; tags and fusion partners are left off.
UniProt O95292: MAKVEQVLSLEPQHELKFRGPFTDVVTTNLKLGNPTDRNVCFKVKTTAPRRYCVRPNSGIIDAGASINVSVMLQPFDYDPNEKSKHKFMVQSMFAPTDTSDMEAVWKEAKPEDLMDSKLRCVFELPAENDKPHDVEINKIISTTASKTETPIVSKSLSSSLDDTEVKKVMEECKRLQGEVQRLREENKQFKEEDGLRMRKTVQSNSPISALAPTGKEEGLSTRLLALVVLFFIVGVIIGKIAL

Biological target: T1, PTPIP51-Flag (UniProt Q96TC7)
T1 sequence: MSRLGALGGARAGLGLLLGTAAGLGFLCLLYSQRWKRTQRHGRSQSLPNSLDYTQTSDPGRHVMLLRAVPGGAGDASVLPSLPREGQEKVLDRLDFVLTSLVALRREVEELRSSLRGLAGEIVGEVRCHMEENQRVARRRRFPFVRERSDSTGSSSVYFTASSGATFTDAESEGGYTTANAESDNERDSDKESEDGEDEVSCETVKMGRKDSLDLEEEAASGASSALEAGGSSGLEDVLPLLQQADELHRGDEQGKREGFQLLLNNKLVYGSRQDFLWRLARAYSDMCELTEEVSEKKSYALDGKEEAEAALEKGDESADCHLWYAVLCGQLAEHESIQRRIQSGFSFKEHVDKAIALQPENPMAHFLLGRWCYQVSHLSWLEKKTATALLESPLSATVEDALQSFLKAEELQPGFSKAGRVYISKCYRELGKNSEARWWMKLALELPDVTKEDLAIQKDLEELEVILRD
Assay: co-IP; lysate (1 mg) of SH-SY5Y cells co-transfected with PTPIP51-Flag or VAPB-Flag and Vector, SNCA or SNCA-S129A for 48 h, IP with anti-Flag antibody overnight at 4°C, magnetic beads, IP buffer 150 mM NaCl, 10 mM Tris-HCl pH 7.5, 2 mM EDTA, 0.5% Triton X-100; western blot

- binding: binds
Substance: vesicle-associated membrane protein-associated protein B (VAPB), endogenous in SH-SY5Y cells (from UniProt O95292 1-243)
